Experimental data as given in article PMC3820547.
These are yes or no findings as the source states them, for the method shown. In cells and extracts the contact can be indirect. These calls come from enrichment with a bait or labelling near it, and not all partners need be listed. For some of these results: A no says only that the protein was not detected with the bait. For some of these results: Where a sequence is shown, tags or fusion partners need not be part of it. Blank lines part the entries; values can stand above or below the substance they belong to.

Sequences of proteins named here, by UniProt entry; tags and fusion partners are left off. A change or cut given only in a name is not applied to a line headed by its entry.
UniProt Q9UYX9: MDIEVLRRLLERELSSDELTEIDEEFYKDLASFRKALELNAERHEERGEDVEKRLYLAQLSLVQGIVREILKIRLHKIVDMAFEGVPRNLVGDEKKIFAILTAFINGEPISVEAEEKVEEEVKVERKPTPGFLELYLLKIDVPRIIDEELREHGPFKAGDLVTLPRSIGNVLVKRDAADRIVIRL
UniProt Q9UYR8: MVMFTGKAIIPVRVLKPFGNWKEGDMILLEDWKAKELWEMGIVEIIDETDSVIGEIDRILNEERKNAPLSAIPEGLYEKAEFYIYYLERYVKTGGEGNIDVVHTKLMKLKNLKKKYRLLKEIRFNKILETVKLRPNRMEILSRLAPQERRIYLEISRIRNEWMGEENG
UniProt Q9V2F4: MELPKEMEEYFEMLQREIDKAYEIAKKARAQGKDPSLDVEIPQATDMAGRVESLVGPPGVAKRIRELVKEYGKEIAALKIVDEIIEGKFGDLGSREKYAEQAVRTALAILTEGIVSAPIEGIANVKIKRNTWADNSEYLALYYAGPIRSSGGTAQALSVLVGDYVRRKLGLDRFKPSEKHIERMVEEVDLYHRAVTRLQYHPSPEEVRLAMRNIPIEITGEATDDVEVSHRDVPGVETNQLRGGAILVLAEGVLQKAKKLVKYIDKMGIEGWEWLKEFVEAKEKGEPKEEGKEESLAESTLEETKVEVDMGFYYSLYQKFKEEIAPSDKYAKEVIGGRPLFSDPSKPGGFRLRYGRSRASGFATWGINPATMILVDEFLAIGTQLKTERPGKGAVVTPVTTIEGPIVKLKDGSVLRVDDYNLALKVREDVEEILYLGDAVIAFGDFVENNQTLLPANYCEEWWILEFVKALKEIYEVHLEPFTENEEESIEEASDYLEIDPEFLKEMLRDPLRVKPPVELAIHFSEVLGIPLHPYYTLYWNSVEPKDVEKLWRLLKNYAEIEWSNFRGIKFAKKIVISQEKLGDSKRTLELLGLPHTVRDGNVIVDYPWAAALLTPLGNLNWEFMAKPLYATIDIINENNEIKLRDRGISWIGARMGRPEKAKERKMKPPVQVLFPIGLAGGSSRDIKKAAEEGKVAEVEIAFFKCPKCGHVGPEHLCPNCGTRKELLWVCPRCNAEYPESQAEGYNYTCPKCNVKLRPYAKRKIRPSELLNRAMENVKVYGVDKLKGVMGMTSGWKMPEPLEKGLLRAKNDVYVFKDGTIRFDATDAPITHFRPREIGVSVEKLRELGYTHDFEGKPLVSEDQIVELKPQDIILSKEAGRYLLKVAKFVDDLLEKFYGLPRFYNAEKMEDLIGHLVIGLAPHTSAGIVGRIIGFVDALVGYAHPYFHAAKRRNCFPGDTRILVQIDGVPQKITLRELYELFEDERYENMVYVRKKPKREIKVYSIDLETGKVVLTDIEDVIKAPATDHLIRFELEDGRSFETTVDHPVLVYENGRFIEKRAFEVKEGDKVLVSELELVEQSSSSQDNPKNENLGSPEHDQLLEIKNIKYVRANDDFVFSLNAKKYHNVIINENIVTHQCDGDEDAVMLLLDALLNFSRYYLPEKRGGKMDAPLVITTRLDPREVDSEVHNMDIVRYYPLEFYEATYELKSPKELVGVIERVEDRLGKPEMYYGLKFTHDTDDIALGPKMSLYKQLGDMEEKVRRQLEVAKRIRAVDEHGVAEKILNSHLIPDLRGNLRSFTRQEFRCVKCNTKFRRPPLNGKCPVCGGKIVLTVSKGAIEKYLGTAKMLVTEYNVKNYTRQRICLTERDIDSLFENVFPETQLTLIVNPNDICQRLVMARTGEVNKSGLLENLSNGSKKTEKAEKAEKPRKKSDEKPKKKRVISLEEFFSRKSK
UniProt Q9V233: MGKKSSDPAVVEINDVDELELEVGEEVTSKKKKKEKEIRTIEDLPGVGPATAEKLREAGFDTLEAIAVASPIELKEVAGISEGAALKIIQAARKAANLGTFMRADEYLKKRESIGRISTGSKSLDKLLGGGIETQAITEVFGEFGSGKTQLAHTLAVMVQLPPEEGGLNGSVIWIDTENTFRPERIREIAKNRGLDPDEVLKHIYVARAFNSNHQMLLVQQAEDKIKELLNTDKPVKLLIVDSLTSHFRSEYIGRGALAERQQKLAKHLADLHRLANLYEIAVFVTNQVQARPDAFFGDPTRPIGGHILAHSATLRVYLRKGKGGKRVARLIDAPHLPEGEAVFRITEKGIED
UniProt Q9UYR4: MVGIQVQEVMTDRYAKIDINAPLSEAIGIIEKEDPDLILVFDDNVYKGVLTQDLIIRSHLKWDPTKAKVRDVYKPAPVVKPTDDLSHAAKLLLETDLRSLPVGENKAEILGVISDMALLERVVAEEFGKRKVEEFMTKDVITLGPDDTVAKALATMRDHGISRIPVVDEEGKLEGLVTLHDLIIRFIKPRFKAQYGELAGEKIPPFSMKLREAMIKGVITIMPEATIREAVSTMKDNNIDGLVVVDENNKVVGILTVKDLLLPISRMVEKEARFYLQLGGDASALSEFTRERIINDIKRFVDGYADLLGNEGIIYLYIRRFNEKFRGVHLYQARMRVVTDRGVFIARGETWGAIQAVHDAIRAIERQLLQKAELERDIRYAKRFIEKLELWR

Key:
[1] = target: T1, PCNA (Q9UYX8), HIS-tagged bait (Pyrococcus abyssi) (UniProt Q9UYX8); assay: affinity purification with mass spectrometry; 10-30 ug of HIS- or GST-tagged bait immobilised on 2 mg cobalt or glutathione magnetic beads, incubated with 4 ml P. abyssi protein extract 3 h at 4°C, washed with PBS; two assays for each bait, without (nuc-) and with (nuc+) DNAse/RNAse treatment of the purified complexes; preys identified by LC-MS/MS; only the target purified
T1 sequence: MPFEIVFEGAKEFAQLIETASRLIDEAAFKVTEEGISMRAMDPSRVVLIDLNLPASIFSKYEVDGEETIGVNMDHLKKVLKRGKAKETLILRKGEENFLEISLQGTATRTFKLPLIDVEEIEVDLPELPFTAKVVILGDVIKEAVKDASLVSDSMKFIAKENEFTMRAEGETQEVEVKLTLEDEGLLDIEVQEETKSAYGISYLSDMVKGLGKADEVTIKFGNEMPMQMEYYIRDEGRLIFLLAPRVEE

[2] = target: T2, NucS (Q9V2E8), HIS-tagged bait (Pyrococcus abyssi) (UniProt Q9V2E8); assay: as above
T2 sequence: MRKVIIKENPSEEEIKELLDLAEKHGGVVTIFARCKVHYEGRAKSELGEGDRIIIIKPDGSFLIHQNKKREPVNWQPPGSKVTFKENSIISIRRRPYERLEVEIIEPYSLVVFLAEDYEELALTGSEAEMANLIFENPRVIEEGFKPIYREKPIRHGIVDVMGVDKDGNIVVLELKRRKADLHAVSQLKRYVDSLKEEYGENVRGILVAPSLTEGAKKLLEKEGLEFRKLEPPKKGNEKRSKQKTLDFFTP

[3] = target: Gins 51 (Q9UYX9), HIS-tagged bait (Pyrococcus abyssi) (UniProt Q9UYX9); assay: as above
[4] = target: T3, Primase small subunit P41 (Q9V292), HIS-tagged (Pyrococcus abyssi) (UniProt Q9V292); assay: as above
T3 sequence: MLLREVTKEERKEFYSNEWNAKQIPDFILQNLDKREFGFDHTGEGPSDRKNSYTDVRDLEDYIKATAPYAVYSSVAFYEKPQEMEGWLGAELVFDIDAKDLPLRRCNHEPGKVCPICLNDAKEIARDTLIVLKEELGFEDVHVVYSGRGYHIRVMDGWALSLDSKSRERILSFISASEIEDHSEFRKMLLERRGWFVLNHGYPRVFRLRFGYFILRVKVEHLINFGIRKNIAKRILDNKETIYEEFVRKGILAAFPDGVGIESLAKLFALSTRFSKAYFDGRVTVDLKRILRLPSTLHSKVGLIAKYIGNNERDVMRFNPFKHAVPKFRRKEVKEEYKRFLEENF

[5] = target: T4, NAD-dependant protein deacetylase (Q9UZE7), HIS-tagged bait (Pyrococcus abyssi) (UniProt Q9UZE7); assay: as above
T4 sequence: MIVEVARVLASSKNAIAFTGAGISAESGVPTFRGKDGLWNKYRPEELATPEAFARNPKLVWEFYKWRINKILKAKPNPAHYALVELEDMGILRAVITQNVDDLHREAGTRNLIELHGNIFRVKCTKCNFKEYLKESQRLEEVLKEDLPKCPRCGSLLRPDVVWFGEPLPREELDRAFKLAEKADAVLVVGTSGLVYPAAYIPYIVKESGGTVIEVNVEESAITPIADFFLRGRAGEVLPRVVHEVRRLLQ

[6] = target: T5, RadB (Q9V2F6), HIS-tagged bait (Pyrococcus abyssi) (UniProt Q9V2F6); assay: as above
T5 sequence: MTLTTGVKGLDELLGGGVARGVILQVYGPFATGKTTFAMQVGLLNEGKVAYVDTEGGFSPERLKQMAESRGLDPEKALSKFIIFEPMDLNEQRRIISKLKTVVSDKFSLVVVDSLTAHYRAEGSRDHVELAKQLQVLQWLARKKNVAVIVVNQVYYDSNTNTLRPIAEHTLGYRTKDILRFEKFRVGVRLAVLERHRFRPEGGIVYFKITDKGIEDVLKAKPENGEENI

[7] = target: Gins 23 (Q9UYR8), HIS-tagged bait (Pyrococcus abyssi) (UniProt Q9UYR8); assay: as above
[8] = target: T6, Rec-J like exonuclease (Q9V2K8), HIS-tagged bait (Pyrococcus abyssi) (UniProt Q9V2K8); assay: condition: only after DNAse/RNAse treatment of the purified complexes (nuc+); affinity purification with mass spectrometry; as a1, the assay with nucleotide degradation (nuc+) alone: purified complexes incubated with 80/1.2 units DNAse/RNAse mix 45 min in PBS at room temperature; only the target purified
T6 sequence: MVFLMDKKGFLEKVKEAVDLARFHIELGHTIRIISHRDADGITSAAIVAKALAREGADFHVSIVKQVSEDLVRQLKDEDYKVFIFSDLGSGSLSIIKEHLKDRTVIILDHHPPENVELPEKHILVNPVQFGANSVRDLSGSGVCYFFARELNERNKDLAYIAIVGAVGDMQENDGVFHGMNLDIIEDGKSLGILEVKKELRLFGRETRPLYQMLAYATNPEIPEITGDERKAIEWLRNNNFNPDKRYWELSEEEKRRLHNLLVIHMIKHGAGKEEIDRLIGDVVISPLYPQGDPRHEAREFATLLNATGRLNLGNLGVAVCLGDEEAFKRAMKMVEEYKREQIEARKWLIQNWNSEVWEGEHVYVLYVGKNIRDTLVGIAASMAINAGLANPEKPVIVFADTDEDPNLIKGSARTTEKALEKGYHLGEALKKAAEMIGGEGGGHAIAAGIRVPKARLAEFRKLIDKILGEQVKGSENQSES

[9] = target: T6, Rec-J like exonuclease (Q9V2K8), HIS-tagged bait (Pyrococcus abyssi); assay: affinity purification with mass spectrometry; as a1, the nuclease free assay (nuc-) alone; only the target purified

- binding [1]: binds
Substance: Pab0431, endogenous

- binding [1]: binds
Substance: small subunit of the loading factor RFC, endogenous

- binding [2]: binds
Substance: Hef/XPF protein, endogenous

- binding [3]: binds
Substance: polymerase subunit of PolD, endogenous (from UniProt Q9V2F4)

- binding [4]: binds
Substance: RadA, endogenous (from UniProt Q9V233 1-353)

- binding [5]: binds
- binding [6]: binds
- binding [7]: binds
- binding [8]: no binding
- binding [9]: binds
Substance: Pab0961, endogenous (from UniProt Q9UYR4)
